{"source": "patent US20250049660A1", "about": "“ENOL ETHER PROPERFUME” (FIRMENICH SA, priority 2021, published 2025)", "assay": "Dynamic headspace analysis of line-dried cotton treated with liquid fabric softener", "conditions": "± standard deviation; for Dynamic headspace concentration of citronellol, profragrance / Dynamic headspace concentration of citronellyl formate, profragrance / Dynamic headspace concentration of octanal, profragrance / Dynamic headspace concentration of undecanal, profragrance / Dynamic headspace concentration of 2-phenylethanol, profragrance / Dynamic headspace concentration of 2-phenylethyl formate, profragrance / Dynamic headspace concentration of 2-phenoxyethan-1-ol, profragrance / Dynamic headspace concentration of 2-phenoxyethyl formate, profragrance / Dynamic headspace concentration of decanal, profragrance / Dynamic headspace concentration of octanol, profragrance / Dynamic headspace concentration of octyl formate, profragrance / Dynamic headspace concentration of 2-methylundecanal, profragrance / Dynamic headspace concentration of cis-3-hexen-1-ol, profragrance / Dynamic headspace concentration of cis-3-hexenyl formate, profragrance: fabric softener; for Dynamic headspace concentration of the perfumery raw material itself, reference: reference fabric softener with 0.075 mmol of each free volatile", "note": "Where “and” joins values, the source holds several entries; their conditions need not be identical. Equal values may be shown once. Where a name gives a salt, the structure may show the parent alone.", "data": [{"smiles": "CCCCCCCC=COCCC(C)CCC=C(C)C", "note": "(stereo not shown) [Compound 15, 1-((3,7-dimethyloct-6-en-1-yl)oxy)non-1-ene]", "values": [{"measurement": "Dynamic headspace concentration of citronellol, profragrance", "setting": "60 min sample (60-75 min)", "result": "24.2 ± 1.1", "unit": "ng/L"}, {"measurement": "Dynamic headspace concentration of citronellyl formate, profragrance", "setting": "60 min sample (60-75 min)", "result": "184 ± 20.2", "unit": "ng/L"}, {"measurement": "Dynamic headspace concentration of octanal, profragrance", "setting": "60 min sample (60-75 min)", "result": "473 ± 45.6", "unit": "ng/L"}, {"measurement": "Dynamic headspace concentration of citronellol, profragrance", "setting": "120 min sample (120-135 min)", "result": "36.1 ± 2.2", "unit": "ng/L"}, {"measurement": "Dynamic headspace concentration of citronellyl formate, profragrance", "setting": "120 min sample (120-135 min)", "result": "163 ± 16.2", "unit": "ng/L"}, {"measurement": "Dynamic headspace concentration of octanal, profragrance", "setting": "120 min sample (120-135 min)", "result": "335 ± 41.5", "unit": "ng/L"}]}, {"smiles": "CCCCCCCCCCC=COCC", "note": "[Compound 38, 1-ethoxydodec-1-ene, reference compound]", "values": [{"measurement": "Dynamic headspace concentration of undecanal, profragrance", "setting": "60 min sample (60-75 min)", "result": "6.3 ± 0.7", "unit": "ng/L"}, {"measurement": "Dynamic headspace concentration of undecanal, profragrance", "setting": "120 min sample (120-135 min)", "result": "9.4 ± 1.2", "unit": "ng/L"}]}, {"smiles": "CCCCCCCCCCC=COCCc1ccccc1", "note": "[Compound 1, (2-(dodec-1-en-1-yloxy)ethyl)benzene]", "values": [{"measurement": "Dynamic headspace concentration of 2-phenylethanol, profragrance", "setting": "60 min sample (60-75 min)", "result": "18.4 ± 1.6", "unit": "ng/L"}, {"measurement": "Dynamic headspace concentration of 2-phenylethyl formate, profragrance", "setting": "60 min sample (60-75 min)", "result": "128 ± 11.0", "unit": "ng/L"}, {"measurement": "Dynamic headspace concentration of undecanal, profragrance", "setting": "60 min sample (60-75 min)", "result": "195 ± 21.1", "unit": "ng/L"}, {"measurement": "Dynamic headspace concentration of 2-phenylethanol, profragrance", "setting": "120 min sample (120-135 min)", "result": "20.9 ± 1.0", "unit": "ng/L"}, {"measurement": "Dynamic headspace concentration of 2-phenylethyl formate, profragrance", "setting": "120 min sample (120-135 min)", "result": "125 ± 9.3", "unit": "ng/L"}, {"measurement": "Dynamic headspace concentration of undecanal, profragrance", "setting": "120 min sample (120-135 min)", "result": "240 ± 4.9", "unit": "ng/L"}]}, {"smiles": "CCCCCCCCCC=COCCOc1ccccc1", "note": "[Compound 10, (2-(undec-1-en-1-yloxy)ethoxy)benzene]", "values": [{"measurement": "Dynamic headspace concentration of 2-phenoxyethan-1-ol, profragrance", "setting": "60 min sample (60-75 min)", "result": "40.1 ± 10", "unit": "ng/L"}, {"measurement": "Dynamic headspace concentration of 2-phenoxyethyl formate, profragrance", "setting": "60 min sample (60-75 min)", "result": "113 ± 0.6", "unit": "ng/L"}, {"measurement": "Dynamic headspace concentration of decanal, profragrance", "setting": "60 min sample (60-75 min)", "result": "185 ± 3.6", "unit": "ng/L"}, {"measurement": "Dynamic headspace concentration of 2-phenoxyethan-1-ol, profragrance", "setting": "120 min sample (120-135 min)", "result": "36.5 ± 3.8", "unit": "ng/L"}, {"measurement": "Dynamic headspace concentration of 2-phenoxyethyl formate, profragrance", "setting": "120 min sample (120-135 min)", "result": "100 ± 5.8", "unit": "ng/L"}, {"measurement": "Dynamic headspace concentration of decanal, profragrance", "setting": "120 min sample (120-135 min)", "result": "130 ± 3.6", "unit": "ng/L"}]}, {"smiles": "CCCCCCCCCCC=COCCCCCCCC", "note": "[Compound 7, 1-(octyloxy)dodec-1-ene]", "values": [{"measurement": "Dynamic headspace concentration of octanol, profragrance", "setting": "60 min sample (60-75 min)", "result": "201 ± 30.2", "unit": "ng/L"}, {"measurement": "Dynamic headspace concentration of octyl formate, profragrance", "setting": "60 min sample (60-75 min)", "result": "37.2 ± 1.2", "unit": "ng/L"}, {"measurement": "Dynamic headspace concentration of undecanal, profragrance", "setting": "60 min sample (60-75 min)", "result": "185 ± 18.4", "unit": "ng/L"}, {"measurement": "Dynamic headspace concentration of octanol, profragrance", "setting": "120 min sample (120-135 min)", "result": "248 ± 41.2", "unit": "ng/L"}, {"measurement": "Dynamic headspace concentration of octyl formate, profragrance", "setting": "120 min sample (120-135 min)", "result": "31.2 ± 4.3", "unit": "ng/L"}, {"measurement": "Dynamic headspace concentration of undecanal, profragrance", "setting": "120 min sample (120-135 min)", "result": "203 ± 34.2", "unit": "ng/L"}]}, {"smiles": "CC(C=O)c1ccccc1", "note": "(stereo not shown) [2-phenylpropanal, reference compound]", "values": [{"measurement": "Dynamic headspace concentration of the perfumery raw material itself, reference", "setting": "60 min sample (60-75 min)", "result": "4.8 ± 3.5", "unit": "ng/L"}, {"measurement": "Dynamic headspace concentration of the perfumery raw material itself, reference", "setting": "120 min sample (120-135 min)", "result": "6.0 ± 4.9", "unit": "ng/L"}]}, {"smiles": "CCCCCCCC=O", "note": "[octanal, reference compound]", "values": [{"measurement": "Dynamic headspace concentration of the perfumery raw material itself, reference", "setting": "60 min sample (60-75 min)", "result": "9.2 ± 0.5 ng/L and 6.2 ± 0.9 ng/L and 9.5 ± 0.7 ng/L"}, {"measurement": "Dynamic headspace concentration of the perfumery raw material itself, reference", "setting": "120 min sample (120-135 min)", "result": "8.4 ± 0.7 ng/L and 5.9 ± 0.5 ng/L and 9.0 ± 0.3 ng/L"}]}, {"smiles": "CCCCCC(CC)OC=O", "note": "(stereo not shown) [3-octanyl formate, reference compound]", "values": [{"measurement": "Dynamic headspace concentration of the perfumery raw material itself, reference", "setting": "60 min sample (60-75 min)", "result": "12.8 ± 1.8", "unit": "ng/L"}, {"measurement": "Dynamic headspace concentration of the perfumery raw material itself, reference", "setting": "120 min sample (120-135 min)", "result": "11.6 ± 1.5", "unit": "ng/L"}]}, {"smiles": "OCCOc1ccccc1", "note": "[2-phenoxyethan-1-ol, reference compound]", "values": [{"measurement": "Dynamic headspace concentration of the perfumery raw material itself, reference", "setting": "120 min sample (120-135 min)", "result": "9.7 ± 2.5 ng/L and 6.5 ± 1.4 ng/L"}]}, {"smiles": "O=CCc1ccccc1", "note": "[phenylacetaldehyde, reference compound]", "values": [{"measurement": "Dynamic headspace concentration of the perfumery raw material itself, reference", "setting": "60 min sample (60-75 min)", "result": "12.1 ± 2.9", "unit": "ng/L"}, {"measurement": "Dynamic headspace concentration of the perfumery raw material itself, reference", "setting": "120 min sample (120-135 min)", "result": "14.9 ± 1.6", "unit": "ng/L"}]}, {"smiles": "O=COCCOc1ccccc1", "note": "[2-phenoxyethyl formate, reference compound]", "values": [{"measurement": "Dynamic headspace concentration of the perfumery raw material itself, reference", "setting": "60 min sample (60-75 min)", "result": "2.5 ± 0.9 ng/L and 1.9 ± 0.6 ng/L"}, {"measurement": "Dynamic headspace concentration of the perfumery raw material itself, reference", "setting": "120 min sample (120-135 min)", "result": "2.3 ± 0.8 ng/L and 2.3 ± 0.6 ng/L"}]}, {"smiles": "CC/C=C\\CCOC=CC(C)CCCCCCCCC", "note": "(stereo not shown) [Compound 27, 1-(((Z)-hex-3-en-1-yl)oxy)-3-methyldodec-1-ene]", "values": [{"measurement": "Dynamic headspace concentration of 2-methylundecanal, profragrance", "setting": "60 min sample (60-75 min)", "result": "474 ± 97.5", "unit": "ng/L"}, {"measurement": "Dynamic headspace concentration of cis-3-hexen-1-ol, profragrance", "setting": "60 min sample (60-75 min)", "result": "69.4 ± 44.9", "unit": "ng/L"}, {"measurement": "Dynamic headspace concentration of cis-3-hexenyl formate, profragrance", "setting": "60 min sample (60-75 min)", "result": "24.4 ± 6.9", "unit": "ng/L"}, {"measurement": "Dynamic headspace concentration of 2-methylundecanal, profragrance", "setting": "120 min sample (120-135 min)", "result": "346 ± 128", "unit": "ng/L"}, {"measurement": "Dynamic headspace concentration of cis-3-hexen-1-ol, profragrance", "setting": "120 min sample (120-135 min)", "result": "47.5 ± 35.2", "unit": "ng/L"}, {"measurement": "Dynamic headspace concentration of cis-3-hexenyl formate, profragrance", "setting": "120 min sample (120-135 min)", "result": "19.5 ± 8.7", "unit": "ng/L"}]}]}
